# Library screen at single concentrations

Source: ChEMBL document CHEMBL3988442, “University of Dundee, Small-Polar-MMV Screening Library” (2021).

The filed quantity is “Percent Effect” (%).
The record does not define 0% and 100%; most values in the screen are far below 50% and negative numbers occur (in some assays of this library far below -100).
The compounds are a random part of those screened.
Two or more numbers in one place are separate tests of the same structure; such repeats can differ widely.

Mtb cholesterol medium: 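Growth of Mycobacterium tuberculosis over 4 days (cholesterol / DPPC medium with tyloxapol); the read-out is not stated. Concentration: 50 µM. The record gives no direction; compounds that gave an IC50 in retests scored well above the rest, so higher reads as more growth inhibition. About 69,000 compounds were tested under these conditions; 0.54% (about 370) showed 50% or more at least once.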
Mtb glucose medium: 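Growth of Mycobacterium tuberculosis over 3 days (7H9 medium with glucose and tyloxapol); the read-out is not stated. Compounds at 50 µM. The record gives no direction; compounds that gave an IC50 in retests scored well above the rest, so higher reads as more growth inhibition. Of about 69,000 compounds tested this way, about 760 (1.1%) reached 50% or more in at least one test.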

compound | Mtb cholesterol medium | Mtb glucose medium
O=C(c1cccnc1O)N1CCN(Cc2ccccc2F)CC1 | -27.99% | -27.86%
COc1cc(N2CCC3(CC2)C(c2ccncc2)CC(=O)N3C)ncn1 (configuration not stated) | -22.54% | -3.186%
Cc1c(C(=O)N2CCCSCC2)nnn1-c1ccccc1Cl | -11.18% | -11.55%
O=C(O)C(F)(F)F.[H][C@@]12COC[C@]1(CNC(=O)C1CC1)CN(Cc1cccc(C)c1)C2 | 9.501% | 33.64%
O=C(O)C(=O)O.c1cncc(-c2noc(C3CN(Cc4cccs4)C3)n2)c1 | 22.35% | 19.42% and 20.97%
Cc1cc(C(=O)NC2CCCCNC2=O)c(=O)[nH]c1C (configuration not stated) | -9.226% | -33.82% and -3.252%
CCCc1noc(CCC(=O)N2CCCC2c2ccc(OC)cc2)n1 (configuration not stated) | -7.798% | -2.188%
Cc1nnc(SCCC(=O)N(C)Cc2ccc(F)cc2F)[nH]1 | 39.12% and 34.71% | 12.24%
CCC(C)N(Cc1ccsc1)C(=O)c1ccc(CO)cc1 (configuration not stated) | 2.044% and -5.281% | 9.794%
CCOC(=O)CSc1ccc(-c2nc(CC)no2)cn1 | 38.69% | 68.07%
CC(CO)(NC(=O)NCc1ccc(Br)s1)C1CC1 (configuration not stated) | -2.386% | 5.471% and 1.58%
Cl.Cn1ccnc1Sc1ccc(N)cn1 | 10.14% | 10.8% and -6.47%
Cn1cnnc1C1CCN(C(=O)Cc2ccc3c(c2)OCCO3)CC1 | -10.38% | -16.41%
COCCn1ccc(NCc2sccc2C)n1 | 12.18% | 12.87%
COC(=O)C(NC(=O)CCc1ccco1)c1cc(F)ccc1F (configuration not stated) | 19.38% | 30.11%
CC(NC(=O)COCC(F)(F)F)c1nnc2n1CCCCC2 (configuration not stated) | -7.185% | 2.371%
Cc1cnc(CC2COCCN(C(=O)c3cncnc3)C2)cn1 (configuration not stated) | 7.598% | 21.99%
Cc1nnc(CN(Cc2cccc3c2OCO3)CC2CCCO2)n1C (configuration not stated) | -15.26% | 10.47%
Cl.c1ncc(-c2ccc(C3CNCCO3)nc2)cn1 (configuration not stated) | -6.506% | 32.16%
Cc1ncsc1C(=O)N1CCCC(c2cc(C(F)F)n3ncnc3n2)C1 (configuration not stated) | 12.94% | 11.13%
O=C(NCCc1cccc(O)c1)NC1CCN(c2ccccc2)C1=O (configuration not stated) | -9.426% | -2.228%
COc1cccc(CN(C(=O)NC2CC2)C2CCC(O)CC2)c1 (configuration not stated) | 3.501% | 11.05%
CC(C)C(C#N)N1CCN(Cc2nccn2CC(F)(F)F)CC1 (configuration not stated) | 5.157% | 41.39%
[H][C@@]12CCN(C(=O)COCC)C[C@]1([H])[C@H](c1nnc(C)o1)CCO2 | 3.065% | 19.34%
CN(CCNC(=O)Nc1ccncc1)C1CCCCC1 | -6.052% | -18.81%
Cc1cc2c(cc1NC(=O)NC(C)(C)C)OCO2 | 4.933% | -4.412% and 0.4336%
Cc1cc(CNC(=O)N(Cc2ccc(F)cc2F)C2CC2)no1 | 16.74% | -0.5675% and -44.66%
Cc1nc(COc2ccc(OCC(N)=O)cc2)oc1C | 2.164% and 12.79% | 1.476%
COc1ccccc1CNC(=O)N1CCCC(NS(C)(=O)=O)C1 (configuration not stated) | -18.12% | -29.95%
O=C(COc1ccccc1F)NCCC(O)c1ccco1 (configuration not stated) | 22.56% | 12.81% and 17.22%
N#Cc1ccc(N2CCC3(CC2)CC(N2CCOCC2)CO3)cc1.O=C(O)C(F)(F)F (configuration not stated) | 1.063% | 4.335%
O=C(Cc1csc(-c2ccccn2)n1)NCCCN1CCCCCC1=O | -10.75% | -3.282%
CCS(=O)(=O)CC(C)N(C)C(=O)COc1ccccc1C#N (configuration not stated) | 0.5007% | 2.265%
CCn1cc(-c2nccnc2C2CCCN(C(C)=O)C2)cn1 (configuration not stated) | -4.696% | -30.12%
O=C(NCCc1cccs1)NCC(O)c1cccc(F)c1 (configuration not stated) | -5.676% | 2.289%
CCSCC(C)NCc1ccccc1-n1ccnc1 (configuration not stated) | -5.158% | -2.252% and -34.36%
CCn1cc(C(=O)NCC2(C(N)=O)CCOCC2)c2ccccc21 | 9.855% and -10.05% | 21.52%
CC(C)N(C)C(=O)C1CCC(=O)N(CCc2cccc(F)c2)C1 (configuration not stated) | 3.726% | 8.537%
CCc1ccc(C2COCCN2C(=O)Nc2cccc(C(C)=O)c2)o1 (configuration not stated) | 10.85% | 18.09%
NCC1CN(c2nc(-c3ccccc3)nc3c2CCNCC3)CCO1 (configuration not stated) | -13.29% | 52.9%
O=C(c1sccc1Cl)N1CCC(Cn2cc(CO)nn2)CC1 | 17.24% | 21.58%
O=c1[nH]cccc1-c1nccc(C2(c3ccccc3Cl)CCNCC2)n1 | -37.27% | 47.92%
CN1CCN(C(=O)c2ccc(Cn3cc(Br)cn3)cc2)CC1 | 2.842% | -15.9%
COCCN1CCn2cc(CNC(=O)c3cnn(C)c3)nc2C1.O=C(O)C(F)(F)F | -10.79% | -7.937%
Cc1ccc(NCCNC(=O)c2cc(CC(C)C)n[nH]2)nn1 | 7.141% | 19.99%
Fc1cccc2[nH]c(CN3CCc4cncnc4C3)nc12 | -0.6568% | 6.077%
CC(=O)Nc1nc(C2CCCN(C(=O)CN(C)C)C2)cs1 (configuration not stated) | 21.7% | 23.68%
CN1CCC2(CCN(CC3CCOCC3)CC2)C1=O.O=C(O)C(F)(F)F | -5.499% | 9.845% and 3.797%
Cl.NC(=O)COc1ccc(CNCc2cc(F)ccc2F)cc1 | -7.599% | -56.32%
O=C1NCCCCC1NC(=O)C1(c2ccccc2)CCOCC1 (configuration not stated) | -11.36% and 1.488% | -2.14%
CC(C)C1CN(C(=O)c2csc(CN(C)C)n2)CCC(=O)N1CC1CC1 (configuration not stated) | -7.259% | 7.178%
CC(Oc1cc(Cl)cc(Cl)c1)C(=O)NCCOCC(N)=O (configuration not stated) | 16.31% | -20.09%
Cc1ncsc1C(=O)NCCNC(=O)OC(C)(C)C | -2.894% | 4.693%
Cc1ccc(O)c(CNC2CCCN(Cc3noc(C4CC4)n3)C2)n1 (configuration not stated) | 2.018% | -1.279% and 4.969%
CCn1nccc1CNC(=O)C1CCCC1 | -24.55% | -34.39%
CCOC(=O)Cn1nnnc1-c1ccccc1 | 2.374% | 0.1505%
CCc1nc(CN(C)C(=O)C2CC(=O)N(c3cccc(O)c3)C2)no1 (configuration not stated) | -35.48% and -2.016% | -38.85%
O=C(CC1CCCC1)N1CCCC1c1ccc(CN2CCOCC2)cn1 (configuration not stated) | -3.243% and -4.149% | 3.311%
Cc1nc2ccnn2c(C)c1CCC(=O)N1CCN2CCCCC2C1 (configuration not stated) | -13.46% | -2.792%
CCOc1cccc(NCc2cnc(N3CCN(C)CC3)nc2)n1 | 21.02% | 14.79%
C[C@@H]1CN(C2CCOC2)C[C@]12CCN(c1cccnc1)C2=O.O=C(O)C(F)(F)F.O=C(O)C(F)(F)F (some centres not stated) | -12.2% | 6.012% and -4.625%
CNC(=O)COc1ccc(CNc2cncc(-n3cccn3)n2)cc1 | 25.04% | 28.33%
O=C(O)C(F)(F)F.[H][C@@]12CCN(C(=O)c3ccoc3)[C@@]1([H])CC(=O)N2CCN1CCOCC1 | 17.84% | 9.701%

8 of the entries, repeated:

Result for CCn1nccc1CNC(=O)C1CCCC1 was Mtb cholesterol medium: -24.55%; Mtb glucose medium: -34.39%.
Result for O=C1NCCCCC1NC(=O)C1(c2ccccc2)CCOCC1 (configuration not stated) was Mtb cholesterol medium: -11.36% and 1.488%; Mtb glucose medium: -2.14%.
Result for O=C(Cc1csc(-c2ccccn2)n1)NCCCN1CCCCCC1=O was Mtb cholesterol medium: -10.75%; Mtb glucose medium: -3.282%.
Result for COc1cccc(CN(C(=O)NC2CC2)C2CCC(O)CC2)c1 (configuration not stated) was Mtb cholesterol medium: 3.501%; Mtb glucose medium: 11.05%.
Result for CCC(C)N(Cc1ccsc1)C(=O)c1ccc(CO)cc1 (configuration not stated) was Mtb cholesterol medium: 2.044% and -5.281%; Mtb glucose medium: 9.794%.
Result for CC(C)C1CN(C(=O)c2csc(CN(C)C)n2)CCC(=O)N1CC1CC1 (configuration not stated) was Mtb cholesterol medium: -7.259%; Mtb glucose medium: 7.178%.
Result for CN1CCC2(CCN(CC3CCOCC3)CC2)C1=O.O=C(O)C(F)(F)F was Mtb cholesterol medium: -5.499%; Mtb glucose medium: 9.845% and 3.797%.
Result for O=C(O)C(=O)O.c1cncc(-c2noc(C3CN(Cc4cccs4)C3)n2)c1 was Mtb cholesterol medium: 22.35%; Mtb glucose medium: 19.42% and 20.97%.